Data from article PMC8758144.
No constants are given. Whether binding was seen depends on the method and setting. In cells and extracts the contact can be indirect. A yes stands for co-enrichment or nearness to the bait. Other partners may have been found.

Sequences of proteins named here, by UniProt entry; tags and fusion partners are left off.
UniProt P55884: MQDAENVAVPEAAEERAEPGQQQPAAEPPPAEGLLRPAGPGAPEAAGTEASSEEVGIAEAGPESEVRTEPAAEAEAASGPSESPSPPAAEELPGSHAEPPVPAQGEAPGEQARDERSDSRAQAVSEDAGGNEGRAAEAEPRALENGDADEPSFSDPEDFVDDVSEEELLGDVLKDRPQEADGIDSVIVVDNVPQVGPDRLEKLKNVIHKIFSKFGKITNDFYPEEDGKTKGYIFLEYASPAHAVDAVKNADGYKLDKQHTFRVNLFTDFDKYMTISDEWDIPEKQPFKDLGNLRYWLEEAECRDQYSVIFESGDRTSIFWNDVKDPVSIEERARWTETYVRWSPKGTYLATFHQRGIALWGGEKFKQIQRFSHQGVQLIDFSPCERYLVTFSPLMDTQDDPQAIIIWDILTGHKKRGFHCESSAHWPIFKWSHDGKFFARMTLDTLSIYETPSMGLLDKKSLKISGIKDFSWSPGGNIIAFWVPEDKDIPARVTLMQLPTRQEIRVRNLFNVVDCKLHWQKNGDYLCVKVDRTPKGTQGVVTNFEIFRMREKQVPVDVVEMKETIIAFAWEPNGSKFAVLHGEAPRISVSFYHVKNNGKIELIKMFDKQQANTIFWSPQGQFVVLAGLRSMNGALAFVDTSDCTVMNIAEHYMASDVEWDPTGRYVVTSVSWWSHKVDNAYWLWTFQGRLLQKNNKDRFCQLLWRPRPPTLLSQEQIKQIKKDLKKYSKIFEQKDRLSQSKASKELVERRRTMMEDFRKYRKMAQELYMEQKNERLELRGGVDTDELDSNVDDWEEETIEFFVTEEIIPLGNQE
UniProt O15371: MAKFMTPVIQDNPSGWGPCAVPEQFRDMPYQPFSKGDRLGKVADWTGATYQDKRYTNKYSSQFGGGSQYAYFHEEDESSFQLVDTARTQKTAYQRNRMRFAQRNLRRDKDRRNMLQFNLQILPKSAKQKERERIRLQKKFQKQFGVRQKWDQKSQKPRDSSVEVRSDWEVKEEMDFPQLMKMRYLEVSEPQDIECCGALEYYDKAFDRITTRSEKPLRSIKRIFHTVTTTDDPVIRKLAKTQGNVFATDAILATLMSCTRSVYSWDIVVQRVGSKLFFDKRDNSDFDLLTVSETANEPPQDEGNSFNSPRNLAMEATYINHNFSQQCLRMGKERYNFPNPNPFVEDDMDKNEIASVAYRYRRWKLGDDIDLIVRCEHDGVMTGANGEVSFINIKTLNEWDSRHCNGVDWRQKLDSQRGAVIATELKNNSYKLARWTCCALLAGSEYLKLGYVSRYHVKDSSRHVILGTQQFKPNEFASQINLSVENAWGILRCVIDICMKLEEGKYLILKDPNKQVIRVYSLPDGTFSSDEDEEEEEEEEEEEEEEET
UniProt O00303: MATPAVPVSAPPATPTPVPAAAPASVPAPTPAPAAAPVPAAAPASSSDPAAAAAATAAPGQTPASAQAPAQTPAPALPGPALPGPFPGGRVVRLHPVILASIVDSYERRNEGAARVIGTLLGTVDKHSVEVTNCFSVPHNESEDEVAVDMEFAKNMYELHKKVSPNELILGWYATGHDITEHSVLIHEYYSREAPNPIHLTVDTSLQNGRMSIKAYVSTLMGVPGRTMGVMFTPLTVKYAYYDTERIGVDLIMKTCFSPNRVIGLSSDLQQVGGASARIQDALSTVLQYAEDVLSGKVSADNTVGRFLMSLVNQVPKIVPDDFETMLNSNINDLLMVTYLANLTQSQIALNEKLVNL

Biological target: eukaryotic initiation factor 3 subunit EIF3B (human (endogenous in Jurkat)) (UniProt P55884)
Assay: affinity purification with mass spectrometry; anti-EIF3B antibody (Bethyl A301-761A) on Dynabeads; NP40 lysis buffer lysate of 4-thiouridine-labelled, 365 nm UV-crosslinked Jurkat cells (activated 5 hr with PMA + ionomycin; non-activated control), MNase-treated; Coomassie-stained gel bands matching the phosphorimage excised and identified by one-dimensional LC-MS/MS

| binding | Substance |
| --- | --- |
| binds | eukaryotic initiation factor 3 subunit EIF3D (from UniProt O15371 1-548) |
| binds | eukaryotic initiation factor 3 subunit EIF3F (from UniProt O00303 1-357) |
